The other results are listed elsewhere or left out. The main result of the screen is listed elsewhere. These columns were measured beside it and carry no call. Most of these compounds were active or inconclusive in the main read-out, so they are no random draw. Words in brackets tell the shape of the fitted curve; partial curves, single points and poor fits give uncertain potencies.
Assay: IkB Signaling
Conditions: ABC-DLBCL IkBa-CBG/CBR dual luciferase ratio (green luciferase fused to IkBa over red control in OCI-Ly3 lymphoma cells), 4 h; measured here: control luc red channel unless noted
Source text: NIH Molecular Libraries Screening Centers Network [MLSCN]
NIH Chemical Genomics Center [NCGC]
Nuclear factor kappa-B (NF-kappa-B) plays an important role in normal B cell development and survival. Diffuse large B cell lymphoma (DLBCL) is the most commonly observed type of non-Hodgkin's lymphoma. Gene expression analysis has identified an activated B cell-like subtype of DLBCL (ABC-DLBCL) which expresses known NF-kappa-B target genes. […] However, targets upstream of IKK have been largely unexplored and so nodes upstream of IKK in the NF-kappa-B pathway remain untested due to the lack of chemical probes.
A cell-sensor assay for I-kappa-B-alpha stabilization was developed with NIH investigator Dr. R. Eric Davis in Dr. Louis M. Staudt's laboratory. The assay uses green (CBG68) and red (CBR) emitting beetle luciferases [Chroma-Glo(TM) developed by Promega Corp.] where the green luciferase is fused to I-kappa-B-alpha and the red luciferase is present in its native state. Both luciferase genes are stably present in the OCI-Ly3 human ABC DLBCL cell line, but their expression is under the control of tetracycline-inducible promoters. Following the addition of doxycycline to induce expression of the luciferases, the green luminescence in control cultures rises only slowly because the CBG fusion partner I-kappa-B-alpha is targeted by IKK activity for rapid degradation. In contrast, green luminescence rises rapidly in the presence of proteasome inhibitors or IKK inhibitors. The rise in red luminescence of CBR is not affected by proteasome or IKK inhibitors, and serves as normalization for cell number and nonspecific effects. Compounds were screened as a concentration-titration series that ranged from 57 uM to 0.7 nM.
NCGC Assay Protocol Summary:
Cells were seeded in 1536-well plates at 5000 cells/3ul in IMDM medium containing 0.5% FBS, w/o phenol red, L-glutamine, 25 mM HEPES, 3 mg/ml sodium bicarbonate. After centrifugation for 1 min. at 1000 rpm, 23 nl of compounds or DMSO were delivered to each well using a pin tool. Then 1ul 80ng/ml doxycycline was dispensed into white solid 1536-well plates and the plates were incubated at 37C/5% C02 in a cell incubator for 4 hrs. Then 4 ul Chroma-Glo luminescent substrate mix (Promega) was added to each well. The plate was incubated at R.T. for 10-15 min. The plates were measured on a ViewLux plate reader for green luminescence (540/20 nm filter) and red luminescence (618/8 nm filter). The green and red luminescent signals were corrected for red and green luminescence filter overlap using previously determined filter calibration constants (determined using the procedure outlined in the Promega Technical Manual). The %Activity was determined from the ratio of corrected green/red luminescent values. Green luminescent and ratio %Activity was determined by normalizing to the difference in signal between basal cells (0% Activity) and cells incubated with 10 uM of the proteasome inhibitor MG-132 (100% Activity). Red luminescent %Activity was normalized to the difference between red luminesence in basal cells (0%Activity) and zero luminescence (-100% Activity).
Concentration-response curves were fitted to the signals arising from the green luminescence (I-kappa-B-alpha-luciferase fusion; IkB-luc) and the red luminescence (unfused luciferase; luc) as well as the calculated ratio. The concentration-effect curves were then classified based on curve quality (r2), response magnitude and degree of measured activity. Compounds were then categorized based on their concentration-response curves for all three datasets (Ikb-luc, luc and ratio).
Keywords: IKK, I-kappa-B, IkB, IkBa, cytotoxicity, luminescence, MLSMR, MLSCN, NIH Roadmap, qHTS, NCGC

With `CCOC(=O)c1cc(-c2ccccc2)n(CCCC(=O)Nc2ccc(C)cc2Cl)c1C` as the molecule, how does the AC50 read?
The AC50 was 1 µM [rising, partial curve].

With `COCC(C)n1c(C)cc(C(=O)COC(=O)c2oc3ccccc3c2C)c1C` (stereo not given) as the molecule, how does the AC50 read?
Its AC50 is 15.8 µM [falling, partial curve].

With `COc1ccc(CCNC(=O)c2oc3ccc(S(=O)(=O)N4CCOCC4)cc3c2C)cc1OC` as the molecule, how does the AC50 read?
Its AC50 is 20 µM [falling, single point].

For `CC(=O)NCc1nc2cccnc2n1Cc1ccccc1`, which AC50 is on record?
Its AC50 is 20 µM [rising, single point].

With `COc1ccc2nc(NC(=O)CSc3nnnn3C3CCCCC3)sc2c1` as the molecule, how does the AC50 read?
The AC50 was 31.6 µM [falling, single point].

Which AC50 does the source give for `Cc1cccc(CCNC(=O)c2ccc3c(c2)nc2n3CCCCC2)c1` here?
Its AC50 is 39.8 µM [falling, single point].

For `Cc1nc2c(-c3ccc(F)cc3)c(C)nn2c(C)c1CCC(=O)N1CCN(c2ccc(F)cc2)CC1`, which AC50 is on record?
Its AC50 is 25.1 µM [falling, partial curve].

With `COc1ccccc1N1CCN(C(=O)Cn2cnc3sc(C)c(S(=O)(=O)N4CCC(C)CC4)c3c2=O)CC1` as the molecule, how does the AC50 read?
The AC50 was 0.0501 µM [falling, full curve].

For `COc1ccc(Cl)cc1N(C)C(=O)Cc1noc2ccc(C)cc12`, which AC50 is on record?
Its AC50 is 39.8 µM [falling, single point].

With `Cc1cccc(Cc2c(C)nc3nc(SCC(=O)NCc4ccc(F)cc4)nn3c2C)c1` as the molecule, how does the AC50 read?
Its AC50 is 20 µM [falling, partial curve].

With `Cc1cc(C)c2c(=O)cc(C(=O)Nc3ccc(S(=O)(=O)Nc4onc(C)c4C)cc3)oc2c1` as the molecule, how does the AC50 read?
The AC50 was 20 µM [falling, single point].

Which AC50 does the source give for `O=C(c1ccc(CS(=O)(=O)c2ccc(Br)cc2)o1)N1CCN(c2ccccn2)CC1` here?
The AC50 was 15.8 µM [falling, partial curve].

Which AC50 does the source give for `CCC(C)NC(=O)c1ccc2c(c1)N=C(C)c1cc(C)ccc1S2` (stereo not given) here?
Its AC50 is 1.58 µM [rising, partial curve].

With `Cc1nn(-c2ccccc2)c2sc(C(=O)N3CCc4ccccc4C3)cc12` as the molecule, how does the AC50 read?
The AC50 was 20 µM [falling, partial curve].

For `Cc1ccc(-n2c(C)cc(C(=O)COC(=O)c3c(C)noc3C)c2C)cc1`, which AC50 is on record?
The AC50 was 39.8 µM [falling, single point].

With `CCN1C(=O)c2ccccc2Sc2ccc(NC(=O)Cc3ccc(OC)cc3)cc21` as the molecule, how does the AC50 read?
Its AC50 is 12.6 µM [falling, partial curve].

With `CC(C)CC(=O)Nc1nnc2n1CCS2` as the molecule, how does the AC50 read?
Its AC50 is 0.126 µM [rising, full curve].

For `CCOc1ccc(NCc2cccn2-c2nnc(N3CCC(C(=O)NCc4cccc(OC)c4)CC3)s2)cc1`, which AC50 is on record?
Its AC50 is 25.1 µM [falling, partial curve].

With `COc1ccc(-n2nnc(C(=O)Nc3ccccc3F)c2N)cc1` as the molecule, how does the AC50 read?
Its AC50 is 7.94 µM [falling, full curve].

With `COc1cccc(NC(=O)C(=O)NCCc2csc3nc(-c4ccccc4C)nn23)c1` as the molecule, how does the AC50 read?
The AC50 was 12.6 µM [falling, partial curve].

For `CCc1ccccc1N(c1nc(-c2ccc(OC)c(OC)c2)no1)c1nc(-c2ccc(OC)c(OC)c2)no1`, which AC50 is on record?
Its AC50 is 3.16 µM [falling, partial curve, poor fit].

With `Cn1c(=O)n(C)c2cc(NC(=O)c3cc4ccccc4o3)ccc21` as the molecule, how does the AC50 read?
The AC50 was 10 µM [falling, partial curve].

With `COc1ccc(Nc2nc3ccccc3nc2NS(=O)(=O)c2ccc(Cl)cc2)cc1OC` as the molecule, how does the AC50 read?
Its AC50 is 1.26 µM [falling, full curve].

Which AC50 does the source give for `CCOC(=O)c1cccc(NC(=O)CSc2nc3cc4ccccc4cc3[nH]2)c1` here?
Its AC50 is 39.8 µM [rising, single point] [measured here: IkB-luc green channel].

For `COc1ccccc1-c1cc(C(=O)NCCc2ccccc2)no1`, which AC50 is on record?
The AC50 was 20 µM [falling, partial curve].

For `CCC(C(=O)NCc1cccc(Br)c1)n1nc(C)c2c(C)n(-c3ccccc3)nc2c1=O` (stereo not given), which AC50 is on record?
Its AC50 is 31.6 µM [falling, partial curve].

For `O=S(=O)(Nc1cccc(F)c1)c1ccc2[nH]c3c(c2c1)CCCCC3`, which AC50 is on record?
The AC50 was 20 µM [falling, partial curve].

For `CC(=O)Nc1ccc(NC(=O)c2cnn(-c3ccccc3)c2C2CCN(C(=O)OC(C)(C)C)CC2)cc1`, which AC50 is on record?
Its AC50 is 10 µM [falling, partial curve].

With `COC(=O)COc1ccc(S(=O)(=O)Nc2ccc3c(c2)OCCO3)cc1Cl` as the molecule, how does the AC50 read?
The AC50 was 12.6 µM [falling, partial curve].

Which AC50 does the source give for `COC(=O)c1c(SCC(=O)Nc2cccc(Cl)c2C)[nH]c2ccccc2c1=O` here?
The AC50 was 20 µM [falling, partial curve].

For `CN(C(=O)c1c2c(nc3ccccc13)C(=O)N(C1CCCCC1)C2)c1ccc(F)cc1`, which AC50 is on record?
Its AC50 is 10 µM [falling, partial curve].

With `Cc1ccc(S(=O)(=O)NCCc2csc3nc(-c4ccccc4F)nn23)cc1C` as the molecule, how does the AC50 read?
Its AC50 is 10 µM [falling, partial curve].

With `COc1cccc(-c2nc(SCc3ccc(C)cc3)n3[nH]c(=O)cc3n2)c1` as the molecule, how does the AC50 read?
Its AC50 is 0.316 µM [rising, partial curve].

Which AC50 does the source give for `CCOC(=O)c1c(C)oc2ncnc(N3CCN(c4ccccc4)CC3)c12` here?
Its AC50 is 15.8 µM [falling, partial curve].

For `Cc1ccc(NC(=O)c2ccccc2F)nc1`, which AC50 is on record?
The AC50 was 39.8 µM [falling, single point].

With `CC(NC(=O)C1CCN(S(=O)(=O)c2ccc3c(c2)oc(=O)n3C)CC1)c1ccccc1` (stereo not given) as the molecule, how does the AC50 read?
The AC50 was 3.16 µM [falling, single point].

With `COc1ccccc1NC1=NCC(=O)N1Cc1ccccc1` as the molecule, how does the AC50 read?
Its AC50 is 5.01 µM [falling, partial curve].

For `COc1ccccc1-c1nc(S(=O)(=O)c2ccccc2)c(N2CCC(C)CC2)o1`, which AC50 is on record?
Its AC50 is 5.01 µM [falling, full curve].

With `O=C(c1cc(-c2cccc(O)c2)on1)N1CCN(C(c2ccccc2)c2ccccc2)CC1` as the molecule, how does the AC50 read?
The AC50 was 10 µM [falling, partial curve].

With `CCS(=O)(=O)c1oc(-c2ccc(F)cc2)nc1S(=O)(=O)c1ccc(Br)cc1` as the molecule, how does the AC50 read?
The AC50 was 2 µM [falling, partial curve].

— PubChem BioAssay AID445 (National Center for Advancing Translational Sciences (NCATS), 2006)
